# Source: paper PMC5031558
# These are yes or no findings as the source states them, for the method shown. Binding seen in cells or lysates may run through a third protein. A yes stands for co-enrichment or nearness to the bait. Other partners may have been found. For some of these results: Where a sequence is shown, tags or fusion partners need not be part of it.
# T1: FLAG-CYLD ΔB-box (human) (UniProt Q9NQC7)
# T1 sequence: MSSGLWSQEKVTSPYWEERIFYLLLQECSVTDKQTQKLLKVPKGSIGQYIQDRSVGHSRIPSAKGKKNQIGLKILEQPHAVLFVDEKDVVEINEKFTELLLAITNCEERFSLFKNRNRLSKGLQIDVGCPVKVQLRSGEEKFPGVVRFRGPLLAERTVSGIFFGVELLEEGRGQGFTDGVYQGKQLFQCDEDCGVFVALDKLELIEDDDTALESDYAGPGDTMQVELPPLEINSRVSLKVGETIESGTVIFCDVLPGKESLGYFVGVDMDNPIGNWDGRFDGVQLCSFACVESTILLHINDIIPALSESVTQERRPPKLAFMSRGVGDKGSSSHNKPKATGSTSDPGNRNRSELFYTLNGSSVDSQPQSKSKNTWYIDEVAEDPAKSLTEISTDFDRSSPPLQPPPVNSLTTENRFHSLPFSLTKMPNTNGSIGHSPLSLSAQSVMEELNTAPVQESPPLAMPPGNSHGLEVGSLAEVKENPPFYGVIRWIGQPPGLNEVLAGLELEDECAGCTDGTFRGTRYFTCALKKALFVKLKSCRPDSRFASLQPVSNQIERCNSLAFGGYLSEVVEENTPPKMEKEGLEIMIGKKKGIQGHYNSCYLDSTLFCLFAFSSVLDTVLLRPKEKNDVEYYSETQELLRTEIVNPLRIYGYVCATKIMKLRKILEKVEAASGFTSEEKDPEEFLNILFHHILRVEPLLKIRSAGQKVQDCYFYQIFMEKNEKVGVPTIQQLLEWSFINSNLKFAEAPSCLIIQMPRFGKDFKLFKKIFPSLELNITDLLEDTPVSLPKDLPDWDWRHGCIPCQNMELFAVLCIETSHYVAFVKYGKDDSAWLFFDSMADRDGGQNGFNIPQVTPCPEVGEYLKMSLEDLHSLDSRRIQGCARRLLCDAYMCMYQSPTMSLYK
# Columns and labels:
# [1] = biological target: FLAG-CYLD wild type (human) (UniProt Q9NQC7); test: affinity purification with mass spectrometry; FLAG-CYLD WT or ΔB-box purified with anti-FLAG from CYLD KO U2OS/NOD2 cell lysates, LC-MS/MS
# [2] = biological target: T1, FLAG-CYLD ΔB-box (human); test: as above
binding [1],binding [2],Binder
binds,–,"SPATA2-like (SPATA2L) (protein, UniProt Q8IUW3 1-424) MGSSSLSEDYRQCLERELRRGRAGVCGDPSLRAVLWQILVEDFDLHGALQDDALALLTDGLWGRADLAPALRGLARAFELLELAAVHLYLLPWRKEFTTIKTFSGGYVHVLKGVLSDDLLLKSFQKMGYVRRDSHRLMVTALPPACQLVQVALGCFALRLECEILGEVLAQLGTSVLPAEELLQARRASGDVASCVAWLQQRLAQDEEPPPLPPRGSPAAYRAPLDLYRDLQEDEGSEDASLYGEPSPGPDSPPAELAYRPPLWEQSAKLWGTGGRAWEPPAEELPQASSPPYGALEEGLEPEPSAFSFLSLRRELSRPGDLATPESSAAASPRRIRAEGVPASAYRSVSEPPGYQAHSCLSPGALPTLCCDTCRQLHAAHCAALPACRPGHSLRVLLGDAQRRLWLQRAQMDTLLYNSPGARP"
binds,binds,"TAK1 (protein, UniProt O43318 1-606) MSTASAASSSSSSSAGEMIEAPSQVLNFEEIDYKEIEVEEVVGRGAFGVVCKAKWRAKDVAIKQIESESERKAFIVELRQLSRVNHPNIVKLYGACLNPVCLVMEYAEGGSLYNVLHGAEPLPYYTAAHAMSWCLQCSQGVAYLHSMQPKALIHRDLKPPNLLLVAGGTVLKICDFGTACDIQTHMTNNKGSAAWMAPEVFEGSNYSEKCDVFSWGIILWEVITRRKPFDEIGGPAFRIMWAVHNGTRPPLIKNLPKPIESLMTRCWSKDPSQRPSMEEIVKIMTHLMRYFPGADEPLQYPCQYSDEGQSNSATSTGSFMDIASTNTSNKSDTNMEQVPATNDTIKRLESKLLKNQAKQQSESGRLSLGASRGSSVESLPPTSEGKRMSADMSEIEARIAATTAYSKPKRGHRKTASFGNILDVPEIVISGNGQPRRRSIQDLTVTGTEPGQVSSRSSSPSVRMITTSGPTSEKPTRSHPWTPDDSTDTNGSDNSIPMAYLTLDHQLQPLAPCPNSKESMAVFEQHCKMAQEYMKVQTEIALLLQRKQELVAELDQDEKDQQNTSRLVQEHKKLLDENKSLSTYYQQCKKQLEVIRSQQQKRQGTS"
binds,–,"SPATA2 (endogenous) (protein, UniProt Q9UM82 1-520) MGKPSSMDTKFKDDLFRKYVQFHESKVDTTTSRQRPGSDECLRVAASTLLSLHKVDPFYRFRLIQFYEVVESSLRSLSSSSLRALHGAFSMLETVGINLFLYPWKKEFRSIKTYTGPFVYYVKSTLLEEDIRAILSCMGYTPELGTAYKLRELVETLQVKMVSFELFLAKVECEQMLEIHSQVKDKGYSELDIVSERKSSAEDVRGCSDALRRRAEGREHLTASMSRVALQKSASERAAKDYYKPRVTKPSRSVDAYDSYWESRKPPLKASLSLRKEPVATDVGDDLKDEIIRPSPSLLTMASSPHGSPDVLPPASPSNGPALLRGTYFSTQDDVDLYTDSEPRATYRRQDALRPDVWLLRNDAHSLYHKRSPPAKESALSKCQSCGLSCSSSLCQRCDSLLTCPPASKPSAFPSKASTHDSLAHGASLREKYPGQTQGLDRLPHLHSKSKPSTTPTSRCGFCNRPGATNTCTQCSKVSCDACLSAYHYDPCYKKSELHKFMPNNQLNYKSTQLSHLVYR"
